Reference: article PMC8891019
Weaker means in comparison with the reference protein, sequence or condition of that experiment.

The chains behind the UniProt entries cited, without tags or fusion partners.
UniProt Q13148, whole entry: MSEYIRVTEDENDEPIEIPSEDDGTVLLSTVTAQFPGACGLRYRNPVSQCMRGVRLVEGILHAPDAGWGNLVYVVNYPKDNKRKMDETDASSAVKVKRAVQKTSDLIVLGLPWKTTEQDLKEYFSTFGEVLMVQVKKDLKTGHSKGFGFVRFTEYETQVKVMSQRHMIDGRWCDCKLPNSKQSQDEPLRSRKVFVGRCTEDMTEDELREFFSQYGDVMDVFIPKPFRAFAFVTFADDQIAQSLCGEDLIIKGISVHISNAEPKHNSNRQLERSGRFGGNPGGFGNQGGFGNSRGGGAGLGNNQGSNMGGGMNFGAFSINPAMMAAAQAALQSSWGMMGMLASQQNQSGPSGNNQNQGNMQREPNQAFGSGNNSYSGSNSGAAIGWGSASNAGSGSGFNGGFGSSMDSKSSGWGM

Target: TDP-43-MBP (full-length wild-type TDP-43) (UniProt Q13148)
Assay: EMSA
Details: Kd,app only in figure, 5' biotin on 18-mer strand, EMSA: 1 nM RNA, 50 mM Tris-HCl pH 7.5, 100 mM KCl, 2 mM MgCl2, 100 mM beta-mercaptoethanol, 0.1 mg/ml BSA, 30 min, room temperature, TDP-43 0-4, recombinant protein, residues 1-414, protein details: MBP, Ni-NTA purified, label: 5' Cy3 on strand 1, 3' Cy5 on 18-mer

| Sequence | binding result (minor reduction vs Intron Ref) | binding result (lower affinity than Repeat Ref) |
| --- | --- | --- |
| AAUGGAUGGGUGGAUAAAUUGAUGGGUGGAUGGAUGCCUCGCUGCCGUCGCCA / UGGCGACGGCAGCGAGGC [Intron Risk (G), rs12608932] | binds more weakly | – |
| UGGAUGGAUGGAUGGAUGGAUGGAUGGAUGGAUGGAUGGCCUCGCUGCCGUCGCCA / UGGCGACGGCAGCGAGGC [Repeat Risk ((GATG)9), rs56041637] | – | binds more weakly |
